According to patent publication US6348573:
No constants are given. Whether binding was seen depends on the method and setting. In cells and extracts the contact can be indirect. Some entries that bind do so weakly or less than the wild type. Where a sequence is shown, tags or fusion partners need not be part of it.

Chains of the proteins cited; added tags and fusions are not shown. Lines headed by an entry give the natural chain unless they say otherwise; changes in a name come on top. A line that says so, or that is headed by a name, gives the form on record, which may keep a tag or linker.
caspase-8, epitope-tagged (pcDNA3-caspase-8-AU1) (Q14790, form named): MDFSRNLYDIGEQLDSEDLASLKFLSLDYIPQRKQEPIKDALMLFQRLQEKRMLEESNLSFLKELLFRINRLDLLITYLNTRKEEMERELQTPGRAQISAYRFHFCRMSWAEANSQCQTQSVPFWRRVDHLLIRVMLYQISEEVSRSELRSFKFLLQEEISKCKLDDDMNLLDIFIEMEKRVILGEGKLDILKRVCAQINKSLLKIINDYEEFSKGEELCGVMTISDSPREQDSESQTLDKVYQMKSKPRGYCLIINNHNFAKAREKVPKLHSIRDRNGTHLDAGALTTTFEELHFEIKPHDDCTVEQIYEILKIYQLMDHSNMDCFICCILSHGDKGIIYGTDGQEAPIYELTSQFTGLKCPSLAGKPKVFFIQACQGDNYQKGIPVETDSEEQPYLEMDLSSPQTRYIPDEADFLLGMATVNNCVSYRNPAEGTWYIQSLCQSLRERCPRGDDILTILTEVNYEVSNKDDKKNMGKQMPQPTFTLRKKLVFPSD

Tests used:
[1] = molecular target: T1, C. elegans CED-3, epitope-tagged (pcDNA3-Ced-3-Flag) (C. elegans) (UniProt P42573); experiment: co-immunoprecipitation from co-transfected 293T cells, immunoblot
T1 sequence (looked up): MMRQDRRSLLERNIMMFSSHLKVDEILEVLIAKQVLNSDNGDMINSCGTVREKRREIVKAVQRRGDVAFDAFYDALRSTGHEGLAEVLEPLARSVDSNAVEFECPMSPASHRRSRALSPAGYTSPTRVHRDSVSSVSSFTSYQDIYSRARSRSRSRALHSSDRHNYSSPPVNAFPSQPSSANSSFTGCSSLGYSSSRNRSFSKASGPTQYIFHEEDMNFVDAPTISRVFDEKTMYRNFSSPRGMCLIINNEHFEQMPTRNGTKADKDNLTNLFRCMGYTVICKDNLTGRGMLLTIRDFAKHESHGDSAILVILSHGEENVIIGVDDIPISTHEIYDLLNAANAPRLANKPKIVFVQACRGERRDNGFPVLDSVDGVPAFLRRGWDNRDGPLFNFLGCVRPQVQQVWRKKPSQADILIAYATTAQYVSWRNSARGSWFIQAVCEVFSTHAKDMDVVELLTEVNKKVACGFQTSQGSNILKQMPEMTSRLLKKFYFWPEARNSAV

[2] = molecular target: caspase-8, epitope-tagged (pcDNA3-caspase-8-AU1) (human) (UniProt Q14790); experiment: as above
[3] = molecular target: T2, human caspase-2, epitope-tagged (human) (UniProt P42575); experiment: as above
T2 sequence (looked up): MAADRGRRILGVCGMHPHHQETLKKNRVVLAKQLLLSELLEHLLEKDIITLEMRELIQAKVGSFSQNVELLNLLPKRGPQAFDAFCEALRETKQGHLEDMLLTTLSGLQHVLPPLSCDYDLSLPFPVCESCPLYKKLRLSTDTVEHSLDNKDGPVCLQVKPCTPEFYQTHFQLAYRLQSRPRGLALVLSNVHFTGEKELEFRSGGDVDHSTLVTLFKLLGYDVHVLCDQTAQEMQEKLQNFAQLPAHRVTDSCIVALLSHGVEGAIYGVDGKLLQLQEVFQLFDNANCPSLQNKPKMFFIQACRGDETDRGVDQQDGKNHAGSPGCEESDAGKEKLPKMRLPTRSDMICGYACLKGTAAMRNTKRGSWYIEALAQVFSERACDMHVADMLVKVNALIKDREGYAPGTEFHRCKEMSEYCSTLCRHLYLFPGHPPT

[4] = molecular target: T1, C. elegans CED-3, epitope-tagged (pcDNA3-Ced-3-Flag) (C. elegans); experiment: co-immunoprecipitation from co-transfected 293T cells, immunoblot (FIG. 6)
[5] = molecular target: caspase-8, epitope-tagged (pcDNA3-caspase-8-AU1) (human) (UniProt Q14790); experiment: as above
[6] = molecular target: T2, human caspase-2, epitope-tagged (human); experiment: as above

Measured: binding

B1: human ARC (Apoptosis Repressor with CARD domain), C-terminally Flag- or HA-tagged (protein, not shown: small tags and cut ends)
chain: MGNAQERPSETIDRERKRLVETLQADSGLLLDALLARGVLTGPEYEALDALPDAERRVRRLLLLVQGKGEAACQELLRCAQRTAGAPDPAWDWQHVGPGYRDRSYDPPCPGHWTPEAPGSGTTCPGLPRASDPDEAGGPEGSEAVQSGTPEEPEPELEAEASKEAEPEPEPEPELEPEAEAEPEPELEPEPDPEPEPDFEERDESEDS
binds: all assays above
